We go through four substances from publication PMC10409745.

By UniProt entry, the sequences of proteins in these tests, tags left out.
UniProt A0A3Q7ELQ2: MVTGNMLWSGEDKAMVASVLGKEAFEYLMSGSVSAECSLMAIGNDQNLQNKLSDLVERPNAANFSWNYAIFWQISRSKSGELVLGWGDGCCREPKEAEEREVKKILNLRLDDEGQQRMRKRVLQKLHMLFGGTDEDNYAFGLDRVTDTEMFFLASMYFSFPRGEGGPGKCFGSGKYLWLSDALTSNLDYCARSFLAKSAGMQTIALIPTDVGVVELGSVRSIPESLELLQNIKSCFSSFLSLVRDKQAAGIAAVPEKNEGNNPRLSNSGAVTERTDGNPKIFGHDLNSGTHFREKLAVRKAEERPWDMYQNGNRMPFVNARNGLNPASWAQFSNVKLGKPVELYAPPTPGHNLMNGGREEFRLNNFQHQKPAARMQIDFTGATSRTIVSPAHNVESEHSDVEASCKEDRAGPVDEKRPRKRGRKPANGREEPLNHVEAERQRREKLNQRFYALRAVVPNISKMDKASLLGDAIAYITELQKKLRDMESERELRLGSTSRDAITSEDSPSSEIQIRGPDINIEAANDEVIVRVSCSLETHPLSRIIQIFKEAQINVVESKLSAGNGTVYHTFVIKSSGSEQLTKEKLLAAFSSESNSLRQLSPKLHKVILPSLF
UniProt A0A3Q7HES4: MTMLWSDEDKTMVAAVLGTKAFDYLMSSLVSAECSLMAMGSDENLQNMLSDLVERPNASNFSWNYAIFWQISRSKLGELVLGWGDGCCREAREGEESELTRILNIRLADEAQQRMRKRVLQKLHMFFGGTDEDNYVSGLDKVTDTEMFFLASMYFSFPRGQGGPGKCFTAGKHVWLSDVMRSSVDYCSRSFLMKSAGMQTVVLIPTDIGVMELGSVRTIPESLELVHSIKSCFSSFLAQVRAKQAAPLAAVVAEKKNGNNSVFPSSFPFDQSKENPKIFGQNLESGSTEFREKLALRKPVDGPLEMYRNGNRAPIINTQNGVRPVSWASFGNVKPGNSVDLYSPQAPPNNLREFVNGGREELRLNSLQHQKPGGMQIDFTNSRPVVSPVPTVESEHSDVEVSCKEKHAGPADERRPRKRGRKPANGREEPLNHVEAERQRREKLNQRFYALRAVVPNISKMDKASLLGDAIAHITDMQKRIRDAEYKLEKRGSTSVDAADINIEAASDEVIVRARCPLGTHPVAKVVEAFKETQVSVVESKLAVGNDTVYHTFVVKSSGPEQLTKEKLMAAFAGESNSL
UniProt A0A3Q7H216: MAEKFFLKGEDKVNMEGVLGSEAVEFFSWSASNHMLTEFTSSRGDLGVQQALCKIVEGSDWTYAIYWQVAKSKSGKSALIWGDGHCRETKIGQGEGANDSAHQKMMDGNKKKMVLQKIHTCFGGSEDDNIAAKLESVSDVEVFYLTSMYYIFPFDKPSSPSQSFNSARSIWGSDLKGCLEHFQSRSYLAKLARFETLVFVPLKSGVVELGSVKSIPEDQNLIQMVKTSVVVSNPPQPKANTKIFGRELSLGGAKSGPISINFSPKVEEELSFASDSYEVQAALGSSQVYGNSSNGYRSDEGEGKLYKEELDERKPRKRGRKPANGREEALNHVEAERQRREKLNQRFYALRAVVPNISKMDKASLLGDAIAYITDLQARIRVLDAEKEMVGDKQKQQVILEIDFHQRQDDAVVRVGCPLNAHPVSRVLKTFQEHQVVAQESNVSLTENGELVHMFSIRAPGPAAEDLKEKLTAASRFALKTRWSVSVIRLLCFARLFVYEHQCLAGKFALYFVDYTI
UniProt A0A3Q7JC00: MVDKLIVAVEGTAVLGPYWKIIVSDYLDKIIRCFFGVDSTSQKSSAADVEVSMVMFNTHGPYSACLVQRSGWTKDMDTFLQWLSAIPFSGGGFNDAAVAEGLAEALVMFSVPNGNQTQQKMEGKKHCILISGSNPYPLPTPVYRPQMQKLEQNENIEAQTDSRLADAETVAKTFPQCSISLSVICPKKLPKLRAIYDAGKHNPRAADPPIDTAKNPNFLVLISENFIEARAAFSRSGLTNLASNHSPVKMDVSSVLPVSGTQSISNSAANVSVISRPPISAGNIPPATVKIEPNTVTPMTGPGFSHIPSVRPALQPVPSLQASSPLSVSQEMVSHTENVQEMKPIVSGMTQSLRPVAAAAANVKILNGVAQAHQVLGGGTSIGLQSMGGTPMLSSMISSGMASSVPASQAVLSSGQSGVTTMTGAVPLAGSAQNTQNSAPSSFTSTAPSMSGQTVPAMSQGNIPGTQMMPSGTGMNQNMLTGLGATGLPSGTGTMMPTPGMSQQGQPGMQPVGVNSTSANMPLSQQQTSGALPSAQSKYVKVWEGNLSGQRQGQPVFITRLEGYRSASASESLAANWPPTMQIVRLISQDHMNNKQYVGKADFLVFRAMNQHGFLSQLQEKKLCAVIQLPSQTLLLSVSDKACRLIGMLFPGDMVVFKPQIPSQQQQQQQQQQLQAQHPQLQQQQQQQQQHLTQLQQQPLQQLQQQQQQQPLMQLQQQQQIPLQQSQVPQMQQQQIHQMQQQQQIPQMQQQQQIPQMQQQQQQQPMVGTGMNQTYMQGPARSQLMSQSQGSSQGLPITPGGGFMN

Experiment [1] addresses ATG8f in pGBKT7 (yeast two-hybrid) (tomato (Solanum lycopersicum)) (UniProt F1JYZ6). The experiment is described as follows: two-hybrid; mated colonies carrying pGBKT7-ATG8s and pGADT7-JAMs (or AIM mutants), transferred from SD-L/T to SD-L/T/A/H plates at different dilutions.
Experiment [2] addresses ATG8d in pGBKT7 (yeast two-hybrid) (tomato (Solanum lycopersicum)). The experiment is described as above.
The target in experiment [3] is ATG8a in pGBKT7 (yeast two-hybrid bait) (tomato (Solanum lycopersicum)) (UniProt F1JYZ5). The description is as above.
For experiment [4] the target is unchanged. Put plainly: two-hybrid; library screen: ATG8a in pGBKT7 as bait in yeast AH109, tomato cDNA library, colonies cultured on SD-Leu/Trp/Ade/His after mating.
Experiment [5] has as its target GST-ERF1 (tomato (Solanum lycopersicum)). Put plainly: pull-down; 1 ug purified GST-ERF1 and MBP-MED25 with increasing amounts of His-JAM1 or His protein; 25 mM Tris-HCl pH 7.5, 100 mM NaCl, 1 mM DTT, 4 C, 2 h; capture by GST, immunoblot with anti-MBP; both purified. Background: In western blotting, separated proteins are transferred to a membrane and probed.

These are yes or no findings as the source states them, for the method shown. Binding can be weak; no strength is given.

On to “JASMONATE-ASSOCIATED MYC2-LIKE 1 (JAM1) in pGADT7 (yeast two-hybrid) (from UniProt A0A3Q7ELQ2 1-613)”, for which the binding entry in experiment [1], in experiment [2], in experiment [3] and in experiment [4] was “binds” in each case.
Take “JASMONATE-ASSOCIATED MYC2-LIKE 2 (JAM2) in pGADT7 (yeast two-hybrid) (from UniProt A0A3Q7HES4 1-579)”: the binding result in experiment [1], in experiment [2] and in experiment [3] was “binds” in each case.
As to “JASMONATE-ASSOCIATED MYC2-LIKE 3 (JAM3) in pGADT7 (yeast two-hybrid) (from UniProt A0A3Q7H216 1-517)”, the binding result in experiment [1], in experiment [2] and in experiment [3] was “binds” in each case.
For the substance “MBP-MED25 (from UniProt A0A3Q7JC00 1-805)”, in experiment [5], the binding entry is listed as “binds”.
